Experiment [1] deals with T1, GST–Ino2 TAD2 (aa 101–135) (S. cerevisiae) (UniProt P26798).
T1 sequence: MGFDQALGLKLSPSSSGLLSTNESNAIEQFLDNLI
Put plainly: pull-down; GST fusions (from E. coli) immobilized on GSH sepharose, incubated with total protein extract from E. coli containing the HA fusion; washed twice with buffer A1, eluted with free GSH; anti-HA blot; only the target purified.

Sequences of proteins named here, by UniProt entry; tags and fusion partners are left off. A change or cut given only in a name is not applied to a line headed by its entry.
UniProt P32773: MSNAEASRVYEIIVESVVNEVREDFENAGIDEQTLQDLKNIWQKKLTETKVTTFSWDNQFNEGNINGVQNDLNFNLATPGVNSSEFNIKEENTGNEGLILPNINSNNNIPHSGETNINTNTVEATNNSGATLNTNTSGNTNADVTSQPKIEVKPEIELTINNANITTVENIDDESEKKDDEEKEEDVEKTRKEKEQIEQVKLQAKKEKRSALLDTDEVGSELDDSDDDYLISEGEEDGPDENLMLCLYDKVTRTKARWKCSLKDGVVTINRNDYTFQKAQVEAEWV

For experiment [2], the target named is T2, GST–Ino2 TAD1 (aa 1–35) (S. cerevisiae) (UniProt P26798).
T2 sequence: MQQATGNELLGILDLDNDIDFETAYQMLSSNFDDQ
Described as above.

No constants are given. Whether binding was seen depends on the method and setting. Binding seen in cells or lysates may run through a third protein. Binding calls can cover weak binding; strength is not graded here. Where a sequence is shown, tags or fusion partners need not be part of it.

As to “Toa1 ABD2 (aa 210–286) L263A K264A (from UniProt P32773) (domain or fragment)”, the binding result in experiment [1] and in experiment [2] was “binds” in each case.

The record behind these values is publication PMC10716077.
